Results from one PubChem assay

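A cell-based FRET test of anthrax lethal toxin entry, tracked through the 460 nm emission signal; the cell line is not named here.
Each compound was tested as a concentration series from about 0.0005 to 40 µM.
The number is the fitted AC50 of the 460 nm signal alone; lower values mean a more potent effect. A falling signal goes with compounds filed as inhibitors or cytotoxic, a rising one with activators or fluorescent compounds (inferred from the filed classes).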

Values are in µM.
Common to all entries: measured here: 460 nm channel.
Part of the compounds only, not a random draw; the main read-out is not listed here.
Potencies fitted to partial, single-point or poorly fitting curves are rough.
The first word of each remark tells which way the curve ran; it can be opposite to the aim of the assay.

- OC[C@@H](O)[C@@H](O)[C@@H](O)[C@@H](O)c1nc2ccc(Cl)cc2[nH]1 : AC50 0.1585 µM (falling, full curve)
- CN1CCN(c2ccccc2NC(=O)c2ccc(OCc3ccccc3)cc2)CC1 : AC50 19.95 µM (falling, single point)
- Cn1ncnc2c(=O)n(C)c(=O)nc1-2 : AC50 1 µM (falling, full curve)
- O=C(O)c1ccccc1 : AC50 0.7943 µM (falling, full curve, poor fit)
- COc1ccc(NC(=O)c2ccco2)cc1NC(=O)c1cccc(OC(C)C)c1 : AC50 31.62 µM (falling, single point)
- Nc1c(C(=O)OC2CCCCC2)c2nc3ccccc3nc2n1CC1CCCO1 (stereo not drawn) : AC50 15.85 µM (rising, partial curve)
- CCOC(=O)CCS(=O)(=O)c1nc(-c2ccccc2)cc(C(F)(F)F)n1 : AC50 2.512 µM (falling, full curve)
- c1ccc2c(c1)oc1c(N3CCN(Cc4ccc5c(c4)OCO5)CC3)ncnc12 : AC50 31.62 µM (falling, single point)
- CN(C(=O)Cc1ccc(Cl)c(Cl)c1)[C@H](CN1CCCC1)c1cccc(N=C=S)c1 : AC50 12.59 µM (falling, partial curve)
- CC[C@H](C)[C@@H]1O[C@]2(CC[C@@H]1C)C[C@H]1C[C@H](CC=C(C)[C@@H](O[C@H]3C[C@H](OC)[C@H](O[C@H]4C[C@H](OC)[C@H](O)[C@H](C)O4)[C@H](C)O3)[C@@H](C)C=CC=C3CO[C@@H]4[C@@H](O)C(C)=C[C@H](C(=O)O1)[C@@]34O)O2 : AC50 31.62 µM (falling, single point)
- COc1ccccc1-n1cnnc1SCC(=O)c1ccc[nH]1 : AC50 6.31 µM (rising, partial curve)
- COc1ccccc1NC(=O)c1ccc(Cl)c(S(=O)(=O)N2CCOCC2)c1 : AC50 1 µM (rising, partial curve, poor fit)
- CCCNS(=O)(=O)c1ccc(OCC(=O)Nc2ccccc2F)cc1 : AC50 0.2512 µM (rising, full curve, poor fit)
- Cc1cnc(NC(=O)CSc2nnc(-c3ccccc3)o2)s1 : AC50 31.62 µM (rising, single point)
- COC(=O)C1=CN(C(C)C)C=C(C(=O)OC)C1c1cccc(OC)c1 : AC50 10 µM (rising, partial curve)
- COc1ncc2nc(-c3cn(C)c4ccccc34)c(=O)n(C[C@H]3CCCO3)c2n1 : AC50 12.59 µM (rising, single point)
- O=c1onc2cnc3ccccc3n12 : AC50 12.59 µM (falling, single point)
- COc1cccc(N2CCN(C3CC(=O)N(c4ccc(Cl)cc4)C3=O)CC2)c1 (stereo not drawn) : AC50 2.512 µM (rising, full curve, poor fit)
- Cc1ccc(-c2nn(-c3ccccc3)cc2C2SCC(=O)N2Cc2ccccc2)o1 (stereo not drawn) : AC50 15.85 µM (falling, partial curve)
- CCCCCC(C(=O)O)C(C)CC(=O)NC1CCCCC1 (stereo not drawn) : AC50 0.2512 µM (rising, partial curve)
- COc1ccc(CNC(=O)c2cc3c(C)nc4ccccc4c3o2)c(OC)c1 : AC50 19.95 µM (falling, partial curve)
- COC(=O)CSc1nnc(-c2ccc(S(=O)(=O)N3CCCCC3)cc2)o1 : AC50 15.85 µM (rising, single point)
- COC(=O)c1cc(Br)ccc1-c1ccc(/C=N/n2nnnc2N)o1 : AC50 31.62 µM (rising, single point)
- CCOC(=O)c1cc2c(=O)n3ccccc3nc2n(Cc2ccco2)c1=NC(=O)c1cccnc1 : AC50 10 µM (rising, single point)
- CCOc1ccc(NS(=O)(=O)c2cc(Cl)ccc2OC)cc1 : AC50 31.62 µM (falling, single point)
- COc1cc(C2c3c(oc4ccccc4c3=O)C(=O)N2Cc2ccncc2)ccc1O (stereo not drawn) : AC50 3.981 µM (rising, full curve)
- CCC1Cc2c(nc3c4c(nc(N5CCOCC5)c(C#N)c24)NC(C)=N3)O1 (stereo not drawn) : AC50 5.012 µM (rising, single point)
- Cc1cc(OCC(=O)O)c2c3c(c(=O)oc2c1)CCCC3 : AC50 0.003981 µM (rising, full curve)
- CN1CCN(c2ncc3nc(-c4ccc(F)cc4)c(=O)n(C4CC4)c3n2)CC1 : AC50 10 µM (rising, partial curve)
- COc1ccc(Cn2nnnc2C(c2cc3cc(C)ccc3[nH]c2=O)N2CCOCC2)cc1 (stereo not drawn) : AC50 31.62 µM (falling, single point)
- CCCn1c(-c2ccc(F)cc2)nc2c(N3CCCN(Cc4ccccc4)CC3)nc(C)nc21 : AC50 12.59 µM (falling, partial curve)
- CCN(CC)c1ccc(NC(=O)C(C)C)cc1 : AC50 0.1 µM (falling, full curve)
- Brc1ccc(CSc2nnc(-c3ccccn3)n2Cc2ccco2)cc1 : AC50 31.62 µM (falling, single point)
- COc1ccccc1S(=O)(=O)Cc1ccc(C(=O)N2CCN(c3ccc(C)cc3)C(C)C2)o1 (stereo not drawn) : AC50 10 µM (falling, partial curve)
- O=C(CN1CCN(CC(=O)c2ccc(F)cc2)CC1)Nc1ccccc1Cl : AC50 12.59 µM (rising, single point)
- COc1ccc([C@@H]2CC(=O)c3c(O)cc(O[C@@H]4O[C@@H](CO[C@@H]5O[C@@H](C)[C@@H](O)[C@@H](O)[C@H]5O)[C@@H](O)[C@@H](O)[C@H]4O)cc3O2)cc1O : AC50 12.59 µM (falling, single point)
- CC1(C)N(O)C(c2ccc(C(=O)O)cc2)=[N+]([O-])C1(C)C : AC50 6.31 µM (falling, full curve)
- Cc1ccc(=O)n(-c2ccccc2)c1 : AC50 12.59 µM (falling, single point)

Once more, the final 4:

structure,AC50 (µM),curve
O=C(CN1CCN(CC(=O)c2ccc(F)cc2)CC1)Nc1ccccc1Cl,12.59,"rising, single point"
COc1ccc([C@@H]2CC(=O)c3c(O)cc(O[C@@H]4O[C@@H](CO[C@@H]5O[C@@H](C)[C@@H](O)[C@@H](O)[C@H]5O)[C@@H](O)[C@@H](O)[C@H]4O)cc3O2)cc1O,12.59,"falling, single point"
CC1(C)N(O)C(c2ccc(C(=O)O)cc2)=[N+]([O-])C1(C)C,6.31,"falling, full curve"
Cc1ccc(=O)n(-c2ccccc2)c1,12.59,"falling, single point"

Source: PubChem BioAssay AID912 (NCATS, 2007).